Amino acid sequences for entries named in this document (tags omitted). A change or cut given only in a name is not applied to a line headed by its entry.
UniProt P51450: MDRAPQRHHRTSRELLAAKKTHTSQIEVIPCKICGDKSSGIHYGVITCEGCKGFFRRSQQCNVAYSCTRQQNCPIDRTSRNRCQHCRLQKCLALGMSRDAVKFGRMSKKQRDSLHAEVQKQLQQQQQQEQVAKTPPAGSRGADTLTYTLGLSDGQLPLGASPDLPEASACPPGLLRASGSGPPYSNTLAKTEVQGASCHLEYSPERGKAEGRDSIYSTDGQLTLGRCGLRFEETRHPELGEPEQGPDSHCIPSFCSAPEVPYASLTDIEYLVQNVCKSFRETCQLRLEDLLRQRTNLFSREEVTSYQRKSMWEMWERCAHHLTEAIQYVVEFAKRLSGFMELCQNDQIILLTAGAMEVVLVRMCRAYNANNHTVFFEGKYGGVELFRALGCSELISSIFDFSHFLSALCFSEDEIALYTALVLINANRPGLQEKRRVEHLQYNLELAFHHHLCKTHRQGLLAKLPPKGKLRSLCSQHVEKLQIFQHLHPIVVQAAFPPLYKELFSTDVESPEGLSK

The campaign covered roughly 310,000 compounds. About 17,000 (5.5%) were called active. Inconclusive results, whose numbers are uncertain, are shown with a selection of clear calls. Calls come from the whole dose curve; as a rule, active = well fitted inhibition curve with a large enough effect; inconclusive = small, poorly fitted or top-dose-only effect, or effect the other way; inactive = no such curve, though single readings can be large or run the other way. Potencies of inconclusive entries are doubtful fits and often do not repeat.
These molecules were tested against Nuclear receptor ROR-gamma (Mus musculus) (UniProt P51450) (assay: qHTS for inhibitors of ROR gamma transcriptional activity). Details: Drosophila S2 Gal4-RORgamma UAS-luciferase reporter, 20 h; series mostly up to 53.6 µM.
Method in brief: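 Read-out: Photinus luciferase luminescence; inhibitors lower reporter signal. Insect Schneider cells with Gal4-ROR gamma fusion under metallothionein promoter, UAS reporter; 700 uM final copper sulfate induction, 20 hr, ambient temperature.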
For C[C@](N)(Cc1ccc(O)c(O)c1)C(=O)O, the Potency was inconclusive: 35.5 µM [inhibitor, single point].
With O=C(NC1CC2CCCC(C1)N2CC(=O)N1CCCc2ccccc21)C1CCCCC1 (stereo unspecified) the Potency was “inactive”.
In the case of CCc1ccc(O)c(N=Cc2cccc(C)c2O)c1, the Potency is reported as active: 11.2 µM.
For Cc1sc2nc(CSc3nnnn3-c3ccc(Cl)cc3)[nH]c(=O)c2c1C, the Potency was inconclusive: 28.2 µM [inhibitor, single point].
With Clc1ccc(OCc2cn3ccccc3n2)c2ncccc12 the Potency was active: 11.2 µM.
For CN(CCC#N)C(=O)COC(=O)c1c2c(nc3ccccc13)/C(=C/c1ccco1)CC2, the Potency was inconclusive: 6.31 µM [activator, single point].
With N#Cc1ccc(-c2ccccc2)nc1SCC(=O)c1cc2ccccc2oc1=O the Potency was “inactive”.
O=C(Nc1ccc(NC(=S)NC(=O)c2ccccc2F)cc1)c1cccs1 was tested, and the Potency was inconclusive: 35.5 µM [inhibitor, single point].
In the case of CC(C)(C)NS(=O)(=O)c1ccc2nc(NC(=O)Cc3cccs3)sc2c1, the Potency is reported as inconclusive: 31.6 µM [activator, single point].
O=C(NCCc1cn2ccccc2n1)C1CCCCC1 was tested, and the Potency was “inactive”.
With CCn1c(O)c(N=NC(=O)c2ccc(CSc3nncn3C)cc2)c2ccccc21 the Potency was inconclusive: 11.2 µM [activator, partial curve].
For COC(=O)/C=C/c1cccc(N(Cc2ccc(-c3ccc(N(C)C)cc3)cc2)C(=O)C2CCCCC2)c1, the Potency was “inactive”.
For CC(=O)c1c(N2CCN(c3ccc(F)cc3)CC2)nc(=S)n(-c2ccccc2)c1C, the Potency was active: 14.1 µM.
COc1ccc(C(C(=O)NC2CCCC2)N(C(=O)c2ccoc2C)c2ccc(C)c(C)c2)cc1 (stereo unspecified) was tested, and the Potency was “inactive”.
O=C(CN1CCN(Cc2ccccc2F)CC1)Nc1ccccc1Cl was tested, and the Potency was “inactive”.
For CCOc1ccc2nc(NC(=O)c3ccoc3C)sc2c1, the Potency was inconclusive: 31.6 µM [inhibitor, single point].
With O=C(c1ccc(SCc2ccco2)c([N+](=O)[O-])c1)N1CCOCC1 the Potency was inconclusive: 17.8 µM [activator, single point].
In the case of c1ccc(CNc2ncnc3ccc(-c4cccnc4)cc23)cc1, the Potency is reported as inconclusive: 11.2 µM [activator, partial curve].
In the case of CC1CCOC(c2coc3ccccc3c2=O)O1 (stereo unspecified), the Potency is reported as inconclusive: 14.1 µM [inhibitor, single point].
In the case of CC(C)c1ccc(/C=C/C(=O)NCCC2=CCCCC2)cc1, the Potency is reported as inconclusive: 8.91 µM [activator, partial curve].
C=CCn1c(SCC(=O)NC2CCS(=O)(=O)C2)nnc1-c1cc2c(s1)CCC(CC)C2 (stereo unspecified) was tested, and the Potency was inconclusive: 12.6 µM [activator, partial curve].

Source: PubChem BioAssay AID2551 (National Center for Advancing Translational Sciences (NCATS), 2010)
Note: nearly all actives have a fitted effect of over 60% in size.
Potency is the fitted concentration of half-maximal effect.
